Literature values as cited in PMC6017732, “Identification and Characterizations of Novel, Selective Histone Methyltransferase SET7 Inhibitors by Scaffold Hopping- and 2D-Molecular Fingerprint-Based Similarity Search” (Molecules : A Journal of Synthetic Chemistry and Natural …, 2018).

Tested on: SET7
Conditions: cited from earlier work

For `CN1CCC(=C2c3ccccc3C=Cc3ccccc32)CC1` [Cyproheptadine], which IC50 is on record?
Its IC50 is 1000 nM.
